Data as given in the supplement of paper PMC10849652.
This is one part of the list.

The chains behind the UniProt entries cited, without tags or fusion partners. Where a name states a change or a piece, a line headed by the entry shows the natural chain unless it says otherwise.
UniProt P29401: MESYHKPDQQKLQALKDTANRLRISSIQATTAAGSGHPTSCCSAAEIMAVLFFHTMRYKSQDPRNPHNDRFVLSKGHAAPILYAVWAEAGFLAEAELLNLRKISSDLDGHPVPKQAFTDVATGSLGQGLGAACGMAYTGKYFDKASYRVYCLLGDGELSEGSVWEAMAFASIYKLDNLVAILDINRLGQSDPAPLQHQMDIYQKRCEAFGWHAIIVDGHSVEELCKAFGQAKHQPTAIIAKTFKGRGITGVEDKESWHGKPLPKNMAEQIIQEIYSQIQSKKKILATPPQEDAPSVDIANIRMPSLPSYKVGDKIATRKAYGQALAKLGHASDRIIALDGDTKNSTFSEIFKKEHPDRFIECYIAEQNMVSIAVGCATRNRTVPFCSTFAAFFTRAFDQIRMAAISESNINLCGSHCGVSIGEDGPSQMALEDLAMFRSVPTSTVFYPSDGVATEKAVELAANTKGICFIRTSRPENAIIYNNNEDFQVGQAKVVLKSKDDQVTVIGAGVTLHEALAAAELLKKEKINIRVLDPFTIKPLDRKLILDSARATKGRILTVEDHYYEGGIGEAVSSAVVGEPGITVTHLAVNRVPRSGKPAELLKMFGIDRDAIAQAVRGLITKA
UniProt O15321, whole entry, looked up: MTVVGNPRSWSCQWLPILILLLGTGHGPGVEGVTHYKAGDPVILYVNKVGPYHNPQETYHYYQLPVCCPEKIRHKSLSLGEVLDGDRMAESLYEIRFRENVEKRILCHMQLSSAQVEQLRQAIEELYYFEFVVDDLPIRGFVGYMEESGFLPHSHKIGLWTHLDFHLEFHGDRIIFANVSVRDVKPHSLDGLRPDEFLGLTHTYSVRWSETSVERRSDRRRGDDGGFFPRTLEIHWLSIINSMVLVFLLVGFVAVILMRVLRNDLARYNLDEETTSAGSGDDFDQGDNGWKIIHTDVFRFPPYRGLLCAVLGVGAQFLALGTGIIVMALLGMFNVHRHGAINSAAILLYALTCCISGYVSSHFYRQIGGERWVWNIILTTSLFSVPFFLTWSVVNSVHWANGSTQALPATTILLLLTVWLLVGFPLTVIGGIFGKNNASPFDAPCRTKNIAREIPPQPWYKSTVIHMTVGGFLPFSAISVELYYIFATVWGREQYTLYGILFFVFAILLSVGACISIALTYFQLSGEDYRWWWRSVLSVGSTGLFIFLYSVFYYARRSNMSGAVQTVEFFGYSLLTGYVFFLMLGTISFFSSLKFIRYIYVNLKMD
UniProt Q8NDZ6: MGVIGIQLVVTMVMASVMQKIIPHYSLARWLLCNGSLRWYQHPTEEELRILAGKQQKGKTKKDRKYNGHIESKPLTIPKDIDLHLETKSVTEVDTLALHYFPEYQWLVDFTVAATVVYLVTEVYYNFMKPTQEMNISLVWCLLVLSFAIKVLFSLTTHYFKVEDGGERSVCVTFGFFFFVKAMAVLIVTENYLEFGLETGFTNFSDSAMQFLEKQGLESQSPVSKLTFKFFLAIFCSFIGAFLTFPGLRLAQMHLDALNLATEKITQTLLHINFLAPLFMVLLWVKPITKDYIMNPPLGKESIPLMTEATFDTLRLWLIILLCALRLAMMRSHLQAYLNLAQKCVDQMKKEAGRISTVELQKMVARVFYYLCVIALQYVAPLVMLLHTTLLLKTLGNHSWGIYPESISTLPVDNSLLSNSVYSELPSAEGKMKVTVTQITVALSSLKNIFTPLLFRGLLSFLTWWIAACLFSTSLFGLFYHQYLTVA
UniProt Q9BVV7: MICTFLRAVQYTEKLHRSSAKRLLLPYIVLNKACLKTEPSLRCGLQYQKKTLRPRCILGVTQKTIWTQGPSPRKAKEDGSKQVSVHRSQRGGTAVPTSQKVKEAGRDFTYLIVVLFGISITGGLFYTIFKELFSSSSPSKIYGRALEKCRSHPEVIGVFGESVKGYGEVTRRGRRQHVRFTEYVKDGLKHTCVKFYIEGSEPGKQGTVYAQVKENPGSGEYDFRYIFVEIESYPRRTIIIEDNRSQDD
UniProt Q5T1C6: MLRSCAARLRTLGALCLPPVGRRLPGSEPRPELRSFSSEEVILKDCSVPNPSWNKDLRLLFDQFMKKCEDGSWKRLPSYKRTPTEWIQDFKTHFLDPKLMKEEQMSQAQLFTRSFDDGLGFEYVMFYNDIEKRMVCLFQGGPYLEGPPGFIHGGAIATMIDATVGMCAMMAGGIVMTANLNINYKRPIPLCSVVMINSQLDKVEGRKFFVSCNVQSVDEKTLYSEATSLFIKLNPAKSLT
UniProt Q9NX61: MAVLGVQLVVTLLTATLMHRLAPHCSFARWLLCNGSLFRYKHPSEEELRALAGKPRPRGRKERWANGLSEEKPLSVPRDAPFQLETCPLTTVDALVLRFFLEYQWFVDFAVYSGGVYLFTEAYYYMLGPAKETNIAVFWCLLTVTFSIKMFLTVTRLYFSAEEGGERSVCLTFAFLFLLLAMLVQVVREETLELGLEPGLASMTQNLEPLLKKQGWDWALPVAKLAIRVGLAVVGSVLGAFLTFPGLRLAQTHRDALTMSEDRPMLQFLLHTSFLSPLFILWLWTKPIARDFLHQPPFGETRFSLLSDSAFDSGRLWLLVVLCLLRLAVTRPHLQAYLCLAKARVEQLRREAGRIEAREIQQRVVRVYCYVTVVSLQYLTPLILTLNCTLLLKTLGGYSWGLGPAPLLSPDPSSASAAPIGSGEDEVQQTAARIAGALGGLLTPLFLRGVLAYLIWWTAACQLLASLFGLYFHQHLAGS
UniProt P49755: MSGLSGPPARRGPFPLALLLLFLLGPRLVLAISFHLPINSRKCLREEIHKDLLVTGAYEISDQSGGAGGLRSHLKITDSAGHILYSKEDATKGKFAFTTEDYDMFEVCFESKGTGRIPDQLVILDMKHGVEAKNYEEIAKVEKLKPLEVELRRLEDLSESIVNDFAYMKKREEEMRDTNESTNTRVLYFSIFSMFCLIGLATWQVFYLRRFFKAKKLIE
UniProt Q9BVW5: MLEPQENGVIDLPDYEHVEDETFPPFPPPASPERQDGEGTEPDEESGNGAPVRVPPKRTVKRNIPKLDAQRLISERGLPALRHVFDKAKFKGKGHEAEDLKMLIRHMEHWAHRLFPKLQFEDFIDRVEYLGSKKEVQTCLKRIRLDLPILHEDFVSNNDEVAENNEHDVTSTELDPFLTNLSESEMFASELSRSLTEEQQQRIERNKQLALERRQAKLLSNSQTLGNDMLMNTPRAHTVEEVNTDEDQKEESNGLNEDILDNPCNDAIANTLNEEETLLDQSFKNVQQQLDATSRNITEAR
UniProt Q5U3C3: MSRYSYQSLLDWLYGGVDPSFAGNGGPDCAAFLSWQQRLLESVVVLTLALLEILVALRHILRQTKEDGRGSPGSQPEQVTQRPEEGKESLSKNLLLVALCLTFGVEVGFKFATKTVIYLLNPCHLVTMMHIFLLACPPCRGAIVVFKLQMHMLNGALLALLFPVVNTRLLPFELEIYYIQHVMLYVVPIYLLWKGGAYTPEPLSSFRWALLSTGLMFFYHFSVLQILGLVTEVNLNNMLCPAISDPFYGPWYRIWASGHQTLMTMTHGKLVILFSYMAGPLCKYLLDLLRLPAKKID
UniProt Q6UWJ1: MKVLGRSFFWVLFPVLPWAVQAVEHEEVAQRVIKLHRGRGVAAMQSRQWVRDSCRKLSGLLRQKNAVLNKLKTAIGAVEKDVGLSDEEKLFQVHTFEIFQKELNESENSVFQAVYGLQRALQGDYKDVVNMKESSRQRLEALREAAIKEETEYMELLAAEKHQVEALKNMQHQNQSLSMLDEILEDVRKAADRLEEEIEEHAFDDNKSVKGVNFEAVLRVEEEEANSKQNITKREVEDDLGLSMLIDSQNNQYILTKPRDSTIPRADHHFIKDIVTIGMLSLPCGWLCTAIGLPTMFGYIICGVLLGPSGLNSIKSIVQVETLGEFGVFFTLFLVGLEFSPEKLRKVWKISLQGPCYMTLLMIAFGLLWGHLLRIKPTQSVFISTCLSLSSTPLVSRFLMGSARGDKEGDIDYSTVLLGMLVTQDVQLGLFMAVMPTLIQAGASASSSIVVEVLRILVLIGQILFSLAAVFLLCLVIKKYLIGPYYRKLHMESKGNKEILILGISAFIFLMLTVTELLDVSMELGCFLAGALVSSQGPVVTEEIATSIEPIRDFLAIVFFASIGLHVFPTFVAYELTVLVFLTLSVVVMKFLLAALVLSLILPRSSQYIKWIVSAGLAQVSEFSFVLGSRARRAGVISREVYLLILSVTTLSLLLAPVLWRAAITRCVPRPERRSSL
UniProt P21980: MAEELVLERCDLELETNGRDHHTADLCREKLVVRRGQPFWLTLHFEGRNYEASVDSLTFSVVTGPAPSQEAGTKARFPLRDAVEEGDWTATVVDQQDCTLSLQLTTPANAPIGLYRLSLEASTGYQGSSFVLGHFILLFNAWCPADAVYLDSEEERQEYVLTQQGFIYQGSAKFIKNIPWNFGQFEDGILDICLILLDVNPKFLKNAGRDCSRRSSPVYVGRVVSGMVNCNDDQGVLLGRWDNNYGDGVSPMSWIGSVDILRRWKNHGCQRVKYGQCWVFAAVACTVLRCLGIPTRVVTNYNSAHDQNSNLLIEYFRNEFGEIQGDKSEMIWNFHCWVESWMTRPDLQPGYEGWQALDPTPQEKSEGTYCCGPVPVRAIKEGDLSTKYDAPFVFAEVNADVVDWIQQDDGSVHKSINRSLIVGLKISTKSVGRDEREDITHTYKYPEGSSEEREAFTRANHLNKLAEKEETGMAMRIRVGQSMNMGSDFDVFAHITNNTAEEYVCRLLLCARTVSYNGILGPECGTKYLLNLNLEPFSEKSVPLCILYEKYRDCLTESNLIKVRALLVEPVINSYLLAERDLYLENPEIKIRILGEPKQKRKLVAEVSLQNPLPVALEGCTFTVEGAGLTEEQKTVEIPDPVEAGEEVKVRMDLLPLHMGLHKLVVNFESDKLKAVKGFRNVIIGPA
UniProt O43422: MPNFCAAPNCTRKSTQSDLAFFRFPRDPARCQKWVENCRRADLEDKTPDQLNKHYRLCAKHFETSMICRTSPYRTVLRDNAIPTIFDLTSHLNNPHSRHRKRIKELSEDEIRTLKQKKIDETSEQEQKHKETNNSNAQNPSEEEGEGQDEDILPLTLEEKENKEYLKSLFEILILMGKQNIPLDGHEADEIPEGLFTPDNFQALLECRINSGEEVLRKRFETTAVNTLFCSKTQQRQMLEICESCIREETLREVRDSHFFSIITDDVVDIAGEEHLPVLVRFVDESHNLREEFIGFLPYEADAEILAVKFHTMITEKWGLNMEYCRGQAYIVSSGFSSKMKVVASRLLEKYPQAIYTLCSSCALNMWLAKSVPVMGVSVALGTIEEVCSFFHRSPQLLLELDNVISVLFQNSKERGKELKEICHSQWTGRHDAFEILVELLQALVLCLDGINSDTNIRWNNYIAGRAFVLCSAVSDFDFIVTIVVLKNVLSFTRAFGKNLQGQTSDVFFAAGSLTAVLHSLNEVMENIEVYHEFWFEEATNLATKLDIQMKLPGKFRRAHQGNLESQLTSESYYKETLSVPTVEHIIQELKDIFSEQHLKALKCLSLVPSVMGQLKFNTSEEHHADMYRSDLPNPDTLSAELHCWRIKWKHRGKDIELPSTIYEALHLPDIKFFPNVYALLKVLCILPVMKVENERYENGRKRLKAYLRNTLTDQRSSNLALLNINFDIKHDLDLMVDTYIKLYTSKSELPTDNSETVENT
UniProt Q96I45: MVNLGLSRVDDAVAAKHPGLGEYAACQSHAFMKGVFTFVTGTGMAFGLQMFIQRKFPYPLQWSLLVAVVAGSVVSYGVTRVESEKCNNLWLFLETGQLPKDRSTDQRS
UniProt Q7Z403: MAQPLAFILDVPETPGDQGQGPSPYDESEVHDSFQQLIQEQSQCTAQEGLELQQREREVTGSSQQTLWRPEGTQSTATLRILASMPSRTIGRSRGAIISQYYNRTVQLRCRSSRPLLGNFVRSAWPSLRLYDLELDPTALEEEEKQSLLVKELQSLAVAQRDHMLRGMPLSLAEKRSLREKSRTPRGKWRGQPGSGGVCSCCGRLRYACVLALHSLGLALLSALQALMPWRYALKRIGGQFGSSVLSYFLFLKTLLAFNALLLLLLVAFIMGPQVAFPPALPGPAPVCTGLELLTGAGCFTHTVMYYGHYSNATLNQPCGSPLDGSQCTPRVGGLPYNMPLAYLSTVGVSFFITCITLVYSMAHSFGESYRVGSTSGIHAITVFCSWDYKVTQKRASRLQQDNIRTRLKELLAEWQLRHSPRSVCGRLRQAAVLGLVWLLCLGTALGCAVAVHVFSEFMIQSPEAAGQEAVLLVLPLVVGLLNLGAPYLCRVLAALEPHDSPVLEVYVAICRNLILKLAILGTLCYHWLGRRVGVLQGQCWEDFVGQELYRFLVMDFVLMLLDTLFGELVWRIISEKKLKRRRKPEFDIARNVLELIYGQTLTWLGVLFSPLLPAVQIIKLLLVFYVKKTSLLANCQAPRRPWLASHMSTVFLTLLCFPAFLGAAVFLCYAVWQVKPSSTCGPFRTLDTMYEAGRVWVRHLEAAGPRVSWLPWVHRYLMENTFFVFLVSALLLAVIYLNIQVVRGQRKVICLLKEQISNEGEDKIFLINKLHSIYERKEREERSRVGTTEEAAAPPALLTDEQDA

Experiments:
Test in all cases: log2 fold change, soluble protein after heating vs DMSO (PISA); higher = thermal stabilisation; K562 lysate, 10 uM; active = over 0.2 and 3.5 SD of the protein, either way, in both replicates (recomputed)
vemurafenib = compound: CCCS(=O)(=O)Nc1ccc(F)c(C(=O)c2c[nH]c3ncc(-c4ccc(Cl)cc4)cc23)c1F [vemurafenib]
Summary of the method: (§1)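 Thermal stability, expressed as log-two fold change relative to solvent controls, is given from duplicates. Crude K562 extract in PBS pH 7.4 with 1 mM MgCl2, at 1 mg/mL protein, was treated with 10 μM compound for 30 min and heated in aliquots for 3 min across 48°C-58°C. After pooling, adjustment to 0.5% NP-40 at 4°C and centrifugation at 21,000xg for 90 min, supernatant protein was measured by TMTpro 16plex LC-MS/MS with channel sums equalised.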

barasertib = compound: CCN(CCCOc1ccc2c(Nc3cc(CC(=O)Nc4cccc(F)c4)[nH]n3)ncnc2c1)CCOP(=O)(O)O [barasertib]
Summary of the method: as §1

[1] = compound: CC[C@@H]1C(=O)N(C)c2cnc(Nc3ccc(C(=O)NC4CCN(C)CC4)cc3OC)nc2N1C1CCCC1
Summary of the method: as §1

[2] = compound: CCn1c(C(=O)N(C2CC2)C2CC2)cc2c3c(ncn3C)c(Nc3cc(C)n(C)n3)nc21
Summary of the method: as §1

[3] = compound: CCn1cc(-c2ccnc3[nH]c(-c4cccc(CN(C)C)c4)cc23)c(-c2ccc(NC(=O)N(C)C)cc2)n1
Summary of the method: as §1

[4] = compound: CN1CCC(CNc2ccc3ncc(-c4cccc(OC(F)(F)F)c4)n3n2)CC1
Summary of the method: as §1

saracatinib = compound: CN1CCN(CCOc2cc(OC3CCOCC3)c3c(Nc4c(Cl)ccc5c4OCO5)ncnc3c2)CC1 [saracatinib]
Summary of the method: as §1

sotrastaurin = compound: CN1CCN(c2nc(C3=C(c4c[nH]c5ccccc45)C(=O)NC3=O)c3ccccc3n2)CC1 [sotrastaurin]
Summary of the method: as §1

[5] = compound: CCCS(=O)(=O)Nc1ccc(F)c(C(=O)c2c[nH]c3ncc(Cl)cc23)c1F
Summary of the method: as §1

volasertib = compound: CC[C@@H]1C(=O)N(C)c2cnc(Nc3ccc(C(=O)N[C@H]4CC[C@H](N5CCN(CC6CC6)CC5)CC4)cc3OC)nc2N1C(C)C [volasertib]
Summary of the method: as §1

Target	log2 fold change (vemurafenib)	log2 fold change (barasertib)	log2 fold change [1]	log2 fold change [2]	log2 fold change [3]	log2 fold change [4]	log2 fold change (saracatinib)	log2 fold change (sotrastaurin)	log2 fold change [5]	log2 fold change (volasertib)
TK1 (UniProt K7ERV3)	inactive: -0.001	inactive: 0.072	inactive: -0.105	inactive: 0.049	inactive: -0.102	inactive: 0.068	inactive: 0.089	inactive: -0.147		
TMEM120B (UniProt A0PK00)	inactive: -0.217		inactive: -0.025				inactive: 0.071	inactive: -0.016	inactive: 0.123	inactive: -0.117
TKT isoform 2 (UniProt P29401)	inactive: -0.002	inactive: -0.032	inactive: 0.011	inactive: -0.022	inactive: -0.029	inactive: 0.037	inactive: 0.034	inactive: 0.006	inactive: 0.005	inactive: 0.032
TM9SF1 (UniProt O15321)	inactive: 0.035	inactive: 0.081	inactive: -0.089	inactive: 0.014			inactive: 0.051	inactive: -0.015	inactive: -0.072	inactive: 0.028
TMEM177 (UniProt Q53S58)	inactive: -0.057	inactive: 0.063	inactive: -0.005	inactive: 0.078	inactive: 0.056	inactive: -0.161		inactive: -0.017	inactive: 0.011	inactive: -0.076
TMEM161B (UniProt Q8NDZ6)	inactive: -0.112	inactive: 0.076	inactive: -0.073	inactive: -0.028	inactive: 0.055	inactive: -0.104		inactive: 0.009	inactive: -0.076	inactive: -0.055
TIMM23 (UniProt O14925)	inactive: 0.028	inactive: 0.021	inactive: 0	inactive: 0.005	inactive: -0.091	inactive: 0.029	inactive: -0.013	inactive: 0.058	inactive: -0.008	inactive: 0.022
TIMM21 (UniProt Q9BVV7)	inactive: 0.033	inactive: 0.033	inactive: -0.049	inactive: 0.049	inactive: -0.066	inactive: -0.082	inactive: 0.012	inactive: 0.025	inactive: 0.042	inactive: -0.025
TMEM104 (UniProt Q8NE00)	inactive: 0.063	inactive: 0.076			inactive: -0.034	inactive: 0.041		inactive: -0.034		
TIMELESS (UniProt Q9UNS1)	inactive: 0.035	inactive: 0.039	inactive: -0.058	inactive: 0.013	inactive: -0.094	inactive: -0.07	inactive: 0.035	inactive: 0	inactive: 0.031	inactive: 0.043
THEM4 (UniProt Q5T1C6)	inactive: -0.03	inactive: -0.02	inactive: 0.037	inactive: 0.001	inactive: 0.012	inactive: 0.032	inactive: -0.042	inactive: -0.027	inactive: 0.002	inactive: 0.019
TMEM14C (UniProt Q9P0S9)	inactive: 0.027	inactive: -0.038	inactive: 0.129	inactive: -0.053			inactive: -0.088	inactive: 0.06	inactive: 0.087	inactive: 0.045
TMEM161A (UniProt Q9NX61)	inactive: -0.164	inactive: 0.095	inactive: -0.005	inactive: -0.02	inactive: 0.107	inactive: -0.298	inactive: -0.018	inactive: 0.01	inactive: 0.109	inactive: 0.024
TM7SF3 (UniProt Q9NS93)	inactive: -0.006	inactive: 0.143	inactive: -0.052	inactive: -0.012	inactive: 0.162	inactive: -0.126	inactive: 0.05	inactive: -0.103		
TJP1 (UniProt G3V1L9)	inactive: 0.076	inactive: -0.034		inactive: -0.021	inactive: 0.04	inactive: -0.004	inactive: 0.096	inactive: -0.046		
TMA7 (UniProt Q9Y2S6)	inactive: 0.026	inactive: -0.032	inactive: -0.012	inactive: -0.014	inactive: -0.106	inactive: 0.078	inactive: 0.016	inactive: -0.017	inactive: -0.046	inactive: 0.015
TIMM10B (UniProt Q9Y5J6)	inactive: -0.052	inactive: 0.099		inactive: 0.045	inactive: -0.043	inactive: -0.031	inactive: 0.116	inactive: -0.009		

Target	log2 fold change (vemurafenib)	log2 fold change (barasertib)	log2 fold change [1]	log2 fold change [2]	log2 fold change [3]	log2 fold change [4]	log2 fold change (saracatinib)	log2 fold change (sotrastaurin)	log2 fold change [5]	log2 fold change (volasertib)
TMED10 (UniProt P49755)	inactive: 0	inactive: -0.008	inactive: 0.078	inactive: 0.008	inactive: 0.074	inactive: -0.117	inactive: -0.005	inactive: -0.051	inactive: -0.009	inactive: 0.011
TIPIN (UniProt Q9BVW5)	inactive: -0.005	inactive: 0.042	inactive: -0.022	inactive: 0	inactive: -0.072	inactive: 0.06	inactive: 0.045	inactive: 0.028	inactive: 0.017	inactive: -0.028
TMEM164 (UniProt Q5U3C3)	inactive: 0.179	inactive: 0.039	inactive: 0.176	inactive: -0.186	active: -0.827	inactive: 0.262	inactive: 0.062	inactive: -0.084	inactive: 0.108	inactive: 0.08
TMA16 (UniProt Q96EY4)	inactive: -0.016	inactive: -0.047	inactive: -0.052	inactive: 0.036	inactive: 0.032	inactive: -0.048	inactive: -0.004	inactive: -0.033	inactive: 0	inactive: 0.038
TMEM167B (UniProt Q9NRX6)	inactive: 0.058	inactive: -0.009	inactive: 0.053	inactive: -0.028	active: -0.472	inactive: 0.086		inactive: 0.056	inactive: -0.057	inactive: 0.038
TMCO3 (UniProt Q6UWJ1)	inactive: 0.038	inactive: 0.028	inactive: 0.12		inactive: 0.167	inactive: 0.052		inactive: -0.03		
TGFBRAP1 (UniProt Q8WUH2)	inactive: -0.031	inactive: 0.031	inactive: -0.069	inactive: 0.049	inactive: 0	inactive: -0.075	inactive: 0.005	inactive: -0.001	inactive: 0.02	inactive: -0.062
THOC5 (UniProt Q13769)	inactive: 0.005	inactive: -0.023	inactive: -0.031	inactive: 0.008	inactive: 0.02	inactive: -0.008	inactive: 0.024	inactive: 0.013	inactive: 0.013	inactive: -0.008
TGM2 (UniProt P21980)	inactive: 0.016	inactive: -0.011	inactive: -0.032	inactive: 0.004	inactive: -0.021	inactive: -0.002	inactive: 0.027	inactive: -0.004	inactive: -0.015	inactive: 0.008
THAP12 (UniProt O43422)	inactive: 0.01	inactive: 0.042	inactive: -0.003	inactive: 0	inactive: 0.028	inactive: -0.094	inactive: 0.035	inactive: 0.025	inactive: 0.007	inactive: -0.064
TMEM141 (UniProt Q96I45)	inactive: 0.036	inactive: 0.054		inactive: -0.002	inactive: -0.058	inactive: 0.036	inactive: 0.001	inactive: 0.181	inactive: 0.078	inactive: 0.016
TMED4 (UniProt Q7Z7H5)	inactive: -0.035	inactive: -0.119	inactive: -0.013	inactive: -0.017	inactive: 0.475	inactive: -0.019	inactive: 0	inactive: 0.04	inactive: 0.006	inactive: 0.044
TMEM143 (UniProt Q96AN5)	inactive: -0.147		inactive: -0.035	inactive: -0.152	inactive: 0.114	inactive: -0.056	inactive: -0.007	inactive: -0.009	inactive: -0.032	inactive: -0.077
TMEM120A (UniProt Q9BXJ8)	inactive: -0.111	inactive: 0.099	inactive: -0.021	inactive: -0.007	inactive: 0.017	inactive: -0.093	inactive: -0.031	inactive: 0.03	inactive: 0.021	inactive: 0.003
TMC6 (UniProt Q7Z403)	inactive: -0.151			inactive: -0.012				inactive: 0.016	inactive: 0.068	inactive: 0.133
TLNRD1 (UniProt Q9H1K6)		inactive: -0.282		inactive: -0.262			inactive: 0.119	inactive: -0.084	inactive: -0.109	inactive: -0.264
